Test results as given in publication PMC3072412.

Experiments:
[1] = molecular target: T1, Nkd1^myc (zebrafish Naked Cuticle homolog 1, C-terminal myc tag) (zebrafish) (UniProt Q2TJA6); assay: co-IP; competition: nkd1^myc co-injected with increasing doses of dsh^HA (0pg, 125pg and 250pg) into zebrafish embryos, harvested at dome stage, immunoprecipitated with anti-myc and western blotted with anti-β-catenin
T1 sequence: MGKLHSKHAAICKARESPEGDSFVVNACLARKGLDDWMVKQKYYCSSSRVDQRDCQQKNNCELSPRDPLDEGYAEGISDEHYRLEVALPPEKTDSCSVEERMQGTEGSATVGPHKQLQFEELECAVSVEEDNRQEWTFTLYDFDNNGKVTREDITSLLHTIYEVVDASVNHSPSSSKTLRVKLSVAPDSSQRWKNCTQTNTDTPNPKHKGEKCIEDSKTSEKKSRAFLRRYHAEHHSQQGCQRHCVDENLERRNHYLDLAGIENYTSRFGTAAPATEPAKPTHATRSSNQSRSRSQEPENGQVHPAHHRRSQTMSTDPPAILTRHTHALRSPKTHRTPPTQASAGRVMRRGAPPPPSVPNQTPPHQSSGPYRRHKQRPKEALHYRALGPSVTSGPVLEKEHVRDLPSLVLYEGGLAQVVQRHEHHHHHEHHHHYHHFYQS

[2] = molecular target: Dvl2 (endogenous zebrafish Disheveled 2) (zebrafish (endogenous in zebrafish embryos)); assay: co-IP; lysates of zebrafish embryos injected with nkd1^myc or nkd1^G2A-myc RNA, with or without wnt8 RNA, harvested at dome stage (4.3 hpf); modified Rubenfelds buffer with 0.3% NP-40; immunoprecipitation with anti-zDvl2, anti-myc or anti-β-catenin, western blot

Q: Dvl2^HA was tested. Which binding [1] did it give?
A: Its binding is “binds”.

B1: Nkd1^myc (zebrafish Naked Cuticle homolog 1, C-terminal myc tag) (protein, UniProt Q2TJA6 1-440)
chain: MGKLHSKHAAICKARESPEGDSFVVNACLARKGLDDWMVKQKYYCSSSRVDQRDCQQKNNCELSPRDPLDEGYAEGISDEHYRLEVALPPEKTDSCSVEERMQGTEGSATVGPHKQLQFEELECAVSVEEDNRQEWTFTLYDFDNNGKVTREDITSLLHTIYEVVDASVNHSPSSSKTLRVKLSVAPDSSQRWKNCTQTNTDTPNPKHKGEKCIEDSKTSEKKSRAFLRRYHAEHHSQQGCQRHCVDENLERRNHYLDLAGIENYTSRFGTAAPATEPAKPTHATRSSNQSRSRSQEPENGQVHPAHHRRSQTMSTDPPAILTRHTHALRSPKTHRTPPTQASAGRVMRRGAPPPPSVPNQTPPHQSSGPYRRHKQRPKEALHYRALGPSVTSGPVLEKEHVRDLPSLVLYEGGLAQVVQRHEHHHHHEHHHHYHHFYQS
Q: Which binding [2] does the source give for B1 here?
A: Its binding is “binds”.

B2: Nkd1^G2A-myc (zebrafish Nkd1, glycine 2 to alanine, C-terminal myc tag) (protein, UniProt Q2TJA6 1-440)
chain: MAKLHSKHAAICKARESPEGDSFVVNACLARKGLDDWMVKQKYYCSSSRVDQRDCQQKNNCELSPRDPLDEGYAEGISDEHYRLEVALPPEKTDSCSVEERMQGTEGSATVGPHKQLQFEELECAVSVEEDNRQEWTFTLYDFDNNGKVTREDITSLLHTIYEVVDASVNHSPSSSKTLRVKLSVAPDSSQRWKNCTQTNTDTPNPKHKGEKCIEDSKTSEKKSRAFLRRYHAEHHSQQGCQRHCVDENLERRNHYLDLAGIENYTSRFGTAAPATEPAKPTHATRSSNQSRSRSQEPENGQVHPAHHRRSQTMSTDPPAILTRHTHALRSPKTHRTPPTQASAGRVMRRGAPPPPSVPNQTPPHQSSGPYRRHKQRPKEALHYRALGPSVTSGPVLEKEHVRDLPSLVLYEGGLAQVVQRHEHHHHHEHHHHYHHFYQS
Q: Which binding [2] does the source give for B2 here?
A: The binding was “binds”.

Results are given in words; binding and its absence hold for the method and conditions named. Binding seen in cells or lysates may run through a third protein. A result given as binding can be weak or reduced; the word gives no strength. Sequences can lack the tags named with a protein.
